Reference: patent publication US20090169552A1 (FRED HUTCHINSON CANCER RESEARCH CENTER, published 2009)
Results are given in words; binding and its absence hold for the method and conditions named. Some binding calls cover weakened binding; strength is not graded here. One block for each binder: values may come before it.

Tests used:
[1] = molecular target: T1, ectodomain-only MICA, expressed in bacteria (human) (UniProt Q29983); assay: purified proteins mixed, non-reducing SDS-PAGE
T1 sequence: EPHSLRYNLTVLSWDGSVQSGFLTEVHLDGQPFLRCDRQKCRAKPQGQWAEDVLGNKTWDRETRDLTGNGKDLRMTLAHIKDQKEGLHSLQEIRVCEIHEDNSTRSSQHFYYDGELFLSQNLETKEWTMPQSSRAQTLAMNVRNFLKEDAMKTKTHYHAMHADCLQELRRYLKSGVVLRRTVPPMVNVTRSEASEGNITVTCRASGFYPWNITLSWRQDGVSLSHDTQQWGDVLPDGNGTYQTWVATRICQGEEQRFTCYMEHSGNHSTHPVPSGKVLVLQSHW

[2] = molecular target: T2, ERp5 (endoplasmic reticulum protein 5) on the cell surface (Homo sapiens (Human)) (UniProt Q15084); assay: flow cytometry, inhibition of MICA tetramer staining of tumor cells
T2 sequence: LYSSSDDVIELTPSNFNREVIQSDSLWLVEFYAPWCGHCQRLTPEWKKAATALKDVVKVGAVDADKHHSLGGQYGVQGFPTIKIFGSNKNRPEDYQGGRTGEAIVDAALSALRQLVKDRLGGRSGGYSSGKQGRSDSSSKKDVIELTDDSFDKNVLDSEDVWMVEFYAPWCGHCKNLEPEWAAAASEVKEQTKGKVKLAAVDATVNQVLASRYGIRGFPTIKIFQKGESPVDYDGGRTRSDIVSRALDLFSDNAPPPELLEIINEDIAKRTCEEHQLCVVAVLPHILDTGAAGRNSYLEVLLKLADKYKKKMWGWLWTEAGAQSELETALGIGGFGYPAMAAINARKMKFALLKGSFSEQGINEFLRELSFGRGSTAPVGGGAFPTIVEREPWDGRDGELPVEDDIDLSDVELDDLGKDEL

binding [1]: binds
B1: C39S mutant of ERp5 fragment 1-118 (enzyme, not shown: small tags and cut ends)
chain: LYSSSDDVIELTPSNFNREVIQSDSLWLVEFYAPWCGHSQRLTPEWKKAATALKDVVKVGAVDADKHHSLGGQYGVQGFPTIKIFGSNKNRPEDYQGGRTGEAIVDAALSALRQLVKD

binding [2]: binds
B2: bacterial rMICA (non-glycosylated MICA expressed in bacteria) (ligand)
chain: EPHSLRYNLTVLSWDGSVQSGFLTEVHLDGQPFLRCDRQKCRAKPQGQWAEDVLGNKTWDRETRDLTGNGKDLRMTLAHIKDQKEGLHSLQEIRVCEIHEDNSTRSSQHFYYDGELFLSQNLETKEWTMPQSSRAQTLAMNVRNFLKEDAMKTKTHYHAMHADCLQELRRYLKSGVVLRRTVPPMVNVTRSEASEGNITVTCRASGFYPWNITLSWRQDGVSLSHDTQQWGDVLPDGNGTYQTWVATRICQGEEQRFTCYMEHSGNHSTHPVPSGK
